Test results reported in paper PMC12514245, “Impaired migration and lung invasion of human melanoma by a novel small molecule targeting the transmembrane domain of death receptor p75^NTR” (EMBO Molecular Medicine, 2025).
Results are given in words; binding and its absence hold for the method and conditions named. Some results given as binding are weak or reduced against the parent protein; the word gives no strength. Tags and fused reporters may be left off the sequences shown.

Target: p75^NTR TMD-AraTM chimera, wild type (MBP - p75^NTR TMD - AraC) (human)
Assay: AraTM (TMD-mediated dimerisation of AraC, GFP reporter in E. coli); MBP-TMD-AraC chimera expressed in AS19 E. coli with Ara-GFP reporter plasmid; 1 mM IPTG, 4 h at 38 °C; GFP/OD630 read-out; baseline without drug, WT set at 100%

## NLIPVYCSILAAVVVGLVAYIAFKRW (domain or fragment) [p75^NTR TMD-AraTM chimera, wild type (MBP - p75^NTR TMD - AraC)]
  binding: binds
